# Laboratory results as given in the supplement of paper PMC8728848.
# The other results are listed elsewhere or left out.
# B1: PX9916F-bfa-443-24-443 (Bacteroides fragilis) (protein)
# chain: DIRPVGSVIPQTAEEYRALLARAYLNVPNDRGLACLRSDEMLVNDNEYDRNSYGDIERWNDVSPFPGTSQFTWSNFYNVLFIANQVIESQKEITEGTPEVVNQLVGEAHLLRAYLHFVLVNLHGQPYTKSGALNSKSIPLKLDTDLEKTLGRNTVEEVYTSILSDIEHARELINKEKWETVFSYRFNVLSVDALQSRVSLYMGAWPKCLESAEAVLAKKSVLVDMNETPLALPNHFESVESITALEQVMGSSVNNAVWVPATFLALYQEGDKRLAAYFAAPDENGNRKSSKGGKREFSCTFRVGELYLNAAEAAANMDKLPHARMRLLELMRKRYTPEAYDKKENAVNVMDKNALISEILNERARELAFEGHRWFDLRRTTRPRMVKVLQGKTYILEQDDPRYTIPIPRDAIAANPGLAN
# Assays:
# Assay in all cases: glycan array binding signal (z-score within array); higher = stronger binding
# Settings in all cases: glycan notation: IUPAC condensed, linker removed
# Gal3S(b1-4)Glc = biological target: Gal3S(b1-4)Glc
# Summary of the method: (§1)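 Arrays were curated from the Consortium for Functional Glycomics database, 3228 in total, and kept only where the protein sequence was available. Binding is expressed as a within-array Z-score. This score was averaged across arrays of the same protein sequence at different concentrations or buffers and across linkers, and negative values can be read as non-binding.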
# Gal3S(b1-4)Glc6S = biological target: Gal3S(b1-4)Glc6S
# Summary of the method: as §1
# Gal3S(b1-4)GlcNAc = biological target: Gal3S(b1-4)GlcNAc
# Summary of the method: as §1
# [1] = biological target: Gal3S(b1-4)[Fuc(a1-3)]Glc6S
# Summary of the method: as §1
# [2] = biological target: Gal3S(b1-4)[Fuc(a1-3)]GlcNAc
# Summary of the method: as §1
# [3] = biological target: Gal3S(b1-4)[Fuc(a1-3)]GlcNAc6S
# Summary of the method: as §1
# Gal3S4S(b1-4)GlcNAc = biological target: Gal3S4S(b1-4)GlcNAc
# Summary of the method: as §1
# Gal3S6S(b1-4)GlcNAc = biological target: Gal3S6S(b1-4)GlcNAc
# Summary of the method: as §1
# Gal3S6S(b1-4)GlcNAc6S = biological target: Gal3S6S(b1-4)GlcNAc6S
# Summary of the method: as §1
# Gal4S(b1-4)GlcNAc = biological target: Gal4S(b1-4)GlcNAc
# Summary of the method: as §1
# Gal4S6S(b1-4)GlcNAc = biological target: Gal4S6S(b1-4)GlcNAc
# Summary of the method: as §1
# Gal6P(b1-4)GlcNAc = biological target: Gal6P(b1-4)GlcNAc
# Summary of the method: as §1
# Gal6S(b1-3)GlcNAc = biological target: Gal6S(b1-3)GlcNAc
# Summary of the method: as §1
# Gal6S(b1-3)GlcNAc6S = biological target: Gal6S(b1-3)GlcNAc6S
# Summary of the method: as §1
# Gal6S(b1-4)Glc = biological target: Gal6S(b1-4)Glc
# Summary of the method: as §1
# Gal6S(b1-4)Glc6S = biological target: Gal6S(b1-4)Glc6S
# Summary of the method: as §1
# Gal6S(b1-4)GlcNAc = biological target: Gal6S(b1-4)GlcNAc
# Summary of the method: as §1
# Gal6S(b1-4)GlcNAc6S = biological target: Gal6S(b1-4)GlcNAc6S
# Summary of the method: as §1
# GalNAc(a1-3)Gal = biological target: GalNAc(a1-3)Gal
# Summary of the method: as §1
# GalNAc(a1-3)GalNAc = biological target: GalNAc(a1-3)GalNAc
# Summary of the method: as §1
# [4] = biological target: GalNAc(a1-3)GalNAc(b1-3)Gal(a1-4)Gal(b1-4)Glc
# Summary of the method: as §1
# [5] = biological target: GalNAc(a1-3)GalNAc(b1-3)Gal(a1-4)Gal(b1-4)GlcNAc
# Summary of the method: as §1
# GalNAc(b1-3)Gal = biological target: GalNAc(b1-3)Gal
# Summary of the method: as §1
# [6] = biological target: GalNAc(b1-3)Gal(a1-4)Gal(b1-4)GlcNAc
# Summary of the method: as §1
# [7] = biological target: GalNAc(b1-3)Gal(a1-4)Gal(b1-4)GlcNAc(b1-3)Gal(b1-4)Glc
# Summary of the method: as §1
# [8] = biological target: GalNAc(b1-3)Gal(a1-6)Gal(b1-4)Glc
# Summary of the method: as §1
# GalNAc(b1-3)GalNAc = biological target: GalNAc(b1-3)GalNAc
# Summary of the method: as §1
# GalNAc(b1-3)GlcNAc = biological target: GalNAc(b1-3)GlcNAc
# Summary of the method: as §1
# GalNAc(b1-4)Gal(b1-4)Glc = biological target: GalNAc(b1-4)Gal(b1-4)Glc
# Summary of the method: as §1
# GalNAc(b1-4)GlcNAc = biological target: GalNAc(b1-4)GlcNAc
# Summary of the method: as §1
# [9] = biological target: GalNAc(b1-4)GlcNAc(b1-2)Man
# Summary of the method: as §1
# [10] = biological target: GalNAc(b1-4)GlcNAc(b1-2)Man(a1-3)[GalNAc(b1-4)GlcNAc(b1-2)Man(a1-6)]Man(b1-4)GlcNAc(b1-4)GlcNAc
# Summary of the method: as §1
# [11] = biological target: GalNAc(b1-4)GlcNAc(b1-3)GalNAc(b1-4)GlcNAc
# Summary of the method: as §1
# GalNAc(b1-4)GlcNAc6S = biological target: GalNAc(b1-4)GlcNAc6S
# Summary of the method: as §1
# GalNAc(b1-6)GalNAc = biological target: GalNAc(b1-6)GalNAc
# Summary of the method: as §1
# GalNAc3S(b1-4)GlcNAc = biological target: GalNAc3S(b1-4)GlcNAc
# Summary of the method: as §1
# GalNAc3S(b1-4)GlcNAc3S = biological target: GalNAc3S(b1-4)GlcNAc3S
# Summary of the method: as §1
binder,measurement,setting,value
B1,glycan array binding signal (z-score),Gal3S(b1-4)Glc,1.14
same,glycan array binding signal (z-score),Gal3S(b1-4)Glc6S,-0.492
same,glycan array binding signal (z-score),Gal3S(b1-4)GlcNAc,0.715
same,glycan array binding signal (z-score),[1],-0.439
same,glycan array binding signal (z-score),[2],-0.371
same,glycan array binding signal (z-score),[3],0.107
same,glycan array binding signal (z-score),Gal3S4S(b1-4)GlcNAc,1.19
same,glycan array binding signal (z-score),Gal3S6S(b1-4)GlcNAc,1.59
same,glycan array binding signal (z-score),Gal3S6S(b1-4)GlcNAc6S,-0.581
same,glycan array binding signal (z-score),Gal4S(b1-4)GlcNAc,-1.25
same,glycan array binding signal (z-score),Gal4S6S(b1-4)GlcNAc,-0.274
same,glycan array binding signal (z-score),Gal6P(b1-4)GlcNAc,0.718
same,glycan array binding signal (z-score),Gal6S(b1-3)GlcNAc,-0.111
same,glycan array binding signal (z-score),Gal6S(b1-3)GlcNAc6S,-0.458
same,glycan array binding signal (z-score),Gal6S(b1-4)Glc,0.371
same,glycan array binding signal (z-score),Gal6S(b1-4)Glc6S,-0.274
same,glycan array binding signal (z-score),Gal6S(b1-4)GlcNAc,-1.66
same,glycan array binding signal (z-score),Gal6S(b1-4)GlcNAc6S,-0.714
same,glycan array binding signal (z-score),GalNAc(a1-3)Gal,-0.667
same,glycan array binding signal (z-score),GalNAc(a1-3)GalNAc,-1.08
same,glycan array binding signal (z-score),[4],-0.04
same,glycan array binding signal (z-score),[5],-0.829
same,glycan array binding signal (z-score),GalNAc(b1-3)Gal,-0.418
same,glycan array binding signal (z-score),[6],0.737
same,glycan array binding signal (z-score),[7],0.078
same,glycan array binding signal (z-score),[8],0.075
same,glycan array binding signal (z-score),GalNAc(b1-3)GalNAc,-0.249
same,glycan array binding signal (z-score),GalNAc(b1-3)GlcNAc,-0.227
same,glycan array binding signal (z-score),GalNAc(b1-4)Gal(b1-4)Glc,-0.197
same,glycan array binding signal (z-score),GalNAc(b1-4)GlcNAc,-0.017
same,glycan array binding signal (z-score),[9],-0.005
same,glycan array binding signal (z-score),[10],0.935
same,glycan array binding signal (z-score),[11],2.16
same,glycan array binding signal (z-score),GalNAc(b1-4)GlcNAc6S,0.581
same,glycan array binding signal (z-score),GalNAc(b1-6)GalNAc,0.481
same,glycan array binding signal (z-score),GalNAc3S(b1-4)GlcNAc,-0.685
same,glycan array binding signal (z-score),GalNAc3S(b1-4)GlcNAc3S,-1.31

# In another format: entries from further up
binder	measurement	setting	value
B1	glycan array binding signal (z-score)	[6]	0.737
same	glycan array binding signal (z-score)	[7]	0.078
